According to the supplement of paper PMC8728848:
Some of the results follow.

Legend:
Experiment in all cases: glycan array binding signal (z-score within array); higher = stronger binding
Settings in all cases: glycan notation: IUPAC condensed, linker removed
[1] = molecular target: Neu5Ac(a2-3)Gal(b1-4)GlcNAc(b1-3)GalNAc
How it was run: (§1)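 Glycan array binding is given as a within-array Z-score, which can be read as non-binding when negative. The arrays, 3228 of them, came from the Consortium for Functional Glycomics database and were retained only where the protein sequence was available. Z-scores were averaged across arrays of the same protein sequence at different concentrations or buffers and across linkers.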

[2] = molecular target: Neu5Ac(a2-3)Gal(b1-4)GlcNAc(b1-3)[Neu5Ac(a2-3)Gal(b1-4)GlcNAc(b1-6)]GalNAc
How it was run: as §1

[3] = molecular target: Neu5Ac(a2-3)Gal(b1-4)GlcNAc(b1-6)GalNAc
How it was run: as §1

[4] = molecular target: Neu5Ac(a2-3)Gal(b1-4)GlcNAc(b1-6)[Gal(b1-3)]GalNAc
How it was run: as §1

[5] = molecular target: Neu5Ac(a2-3)Gal(b1-4)GlcNAc(b1-6)[Neu5Ac(a2-3)Gal(b1-3)]GalNAc
How it was run: as §1

[6] = molecular target: Neu5Ac(a2-3)Gal(b1-4)GlcNAc6S
How it was run: as §1

[7] = molecular target: Neu5Ac(a2-3)Gal(b1-4)[Fuc(a1-3)]GlcNAc
How it was run: as §1

[8] = molecular target: Neu5Ac(a2-3)Gal(b1-4)[Fuc(a1-3)]GlcNAc(b1-2)Man
How it was run: as §1

[9] = molecular target: Neu5Ac(a2-3)Gal(b1-4)[Fuc(a1-3)]GlcNAc(b1-3)Gal
How it was run: as §1

[10] = molecular target: Neu5Ac(a2-3)Gal(b1-4)[Fuc(a1-3)]GlcNAc(b1-3)Gal(b1-4)GlcNAc
How it was run: as §1

[11] = molecular target: Neu5Ac(a2-3)Gal(b1-4)[Fuc(a1-3)]GlcNAc(b1-3)Gal(b1-4)[Fuc(a1-3)]GlcNAc(b1-3)Gal(b1-4)[Fuc(a1-3)]GlcNAc
How it was run: as §1

[12] = molecular target: Neu5Ac(a2-3)Gal(b1-4)[Fuc(a1-3)]GlcNAc(b1-3)GalNAc
How it was run: as §1

[13] = molecular target: Neu5Ac(a2-3)Gal(b1-4)[Fuc(a1-3)]GlcNAc(b1-6)[Gal(b1-3)]GalNAc
How it was run: as §1

[14] = molecular target: Neu5Ac(a2-3)Gal(b1-4)[Fuc(a1-3)]GlcNAc(b1-6)[Neu5Ac(a2-3)Gal(b1-3)]GalNAc
How it was run: as §1

[15] = molecular target: Neu5Ac(a2-3)Gal(b1-4)[Fuc(a1-3)]GlcNAc6S
How it was run: as §1

[16] = molecular target: Neu5Ac(a2-3)Gal6S(b1-4)GlcNAc
How it was run: as §1

[17] = molecular target: Neu5Ac(a2-3)Gal6S(b1-4)[Fuc(a1-3)]GlcNAc
How it was run: as §1

Neu5Ac(a2-3)GalNAc = molecular target: Neu5Ac(a2-3)GalNAc
How it was run: as §1

[18] = molecular target: Neu5Ac(a2-3)GalNAc(b1-4)GlcNAc
How it was run: as §1

[19] = molecular target: Neu5Ac(a2-3)[GalNAc(b1-4)]Gal(b1-4)Glc
How it was run: as §1

[20] = molecular target: Neu5Ac(a2-3)[GalNAc(b1-4)]Gal(b1-4)GlcNAc
How it was run: as §1

[21] = molecular target: Neu5Ac(a2-3)[GalNAc(b1-4)]Gal(b1-4)GlcNAc(b1-3)GalNAc
How it was run: as §1

[22] = molecular target: Neu5Ac(a2-3)[Neu5Ac(a2-6)]GalNAc
How it was run: as §1

Neu5Ac(a2-6)Gal = molecular target: Neu5Ac(a2-6)Gal
How it was run: as §1

[23] = molecular target: Neu5Ac(a2-6)Gal(b1-3)GlcNAc(b1-3)[Gal(b1-4)GlcNAc(b1-6)]Gal(b1-4)Glc
How it was run: as §1

Neu5Ac(a2-6)Gal(b1-4)Glc = molecular target: Neu5Ac(a2-6)Gal(b1-4)Glc
How it was run: as §1

[24] = molecular target: Neu5Ac(a2-6)Gal(b1-4)GlcNAc
How it was run: as §1

[25] = molecular target: Neu5Ac(a2-6)Gal(b1-4)GlcNAc(b1-2)Man
How it was run: as §1

[26] = molecular target: Neu5Ac(a2-6)Gal(b1-4)GlcNAc(b1-2)Man(a1-3)Man(b1-4)GlcNAc(b1-4)GlcNAc
How it was run: as §1

[27] = molecular target: Neu5Ac(a2-6)Gal(b1-4)GlcNAc(b1-2)Man(a1-3)[Gal(b1-4)GlcNAc(b1-2)Man(a1-6)]Man(b1-4)GlcNAc(b1-4)GlcNAc
How it was run: as §1

[28] = molecular target: Neu5Ac(a2-6)Gal(b1-4)GlcNAc(b1-2)Man(a1-3)[GlcNAc(b1-2)Man(a1-6)]Man(b1-4)GlcNAc(b1-4)GlcNAc
How it was run: as §1

[29] = molecular target: Neu5Ac(a2-6)Gal(b1-4)GlcNAc(b1-2)Man(a1-3)[GlcNAc(b1-2)Man(b1-4)GlcNAc(b1-2)Man(a1-6)]Man(b1-4)GlcNAc(b1-4)GlcNAc
How it was run: as §1

[30] = molecular target: Neu5Ac(a2-6)Gal(b1-4)GlcNAc(b1-2)Man(a1-3)[GlcNAc(b1-4)][Neu5Ac(a2-6)Gal(b1-4)GlcNAc(b1-2)Man(a1-6)]Man(b1-4)GlcNAc(b1-4)GlcNAc
How it was run: as §1

[31] = molecular target: Neu5Ac(a2-6)Gal(b1-4)GlcNAc(b1-2)Man(a1-3)[Man(a1-6)]Man(b1-4)GlcNAc(b1-4)GlcNAc
How it was run: as §1

[32] = molecular target: Neu5Ac(a2-6)Gal(b1-4)GlcNAc(b1-2)Man(a1-3)[Neu5Ac(a2-3)Gal(b1-4)GlcNAc(b1-2)Man(a1-6)]Man(b1-4)GlcNAc(b1-4)GlcNAc
How it was run: as §1

[33] = molecular target: Neu5Ac(a2-6)Gal(b1-4)GlcNAc(b1-2)Man(a1-3)[Neu5Ac(a2-6)Gal(b1-4)GlcNAc(b1-2)Man(a1-6)]Man(b1-4)GlcNAc(b1-4)GlcNAc
How it was run: as §1

[34] = molecular target: Neu5Ac(a2-6)Gal(b1-4)GlcNAc(b1-2)Man(a1-3)[Neu5Ac(a2-6)Gal(b1-4)GlcNAc(b1-2)Man(a1-6)]Man(b1-4)GlcNAc(b1-4)[Fuc(a1-6)]GlcNAc
How it was run: as §1

[35] = molecular target: Neu5Ac(a2-6)Gal(b1-4)GlcNAc(b1-2)Man(a1-6)Man(b1-4)GlcNAc(b1-4)GlcNAc
How it was run: as §1

B1: CRT-1 (Homo sapiens), P27797 (protein)
chain: MLLSVPLLLGLLGLAVAEPAVYFKEQFLDGDGWTSRWIESKHKSDFGKFVLSSGKFYGDEEKDKGLQTSQDARFYALSASFEPFSNKGQTLVVQFTVKHEQNIDCGGGYVKLFPNSLDQTDMHGDSEYNIMFGPDICGPGTKKVHVIFNYKGKNVLINKDIRCKDDEFTHLYTLIVRPDNTYEVKIDNSQVESGSLEDDWDFLPPKKIKDPDASKPEDWDERAKIDDPTDSKPEDWDKPEHIPDPDAKKPEDWDEEMDGEWEPPVIQNPEYKGEWKPRQIDNPDYKGTWIHPEIDNPEYSPDPSIYAYDNFGVLGLDLWQVKSGTIFDNFLITNDEAYAEEFGNETWGVTKAAEKQMKDKQDEEQRLKEEEEDKKRKEEEEAEDKEDDEDKDEDEEDEEDKEEDEEEDVPGQAKDEL
glycan array binding signal (z-score) [1]: 0.034 | glycan array binding signal (z-score) [2]: 0.871 | glycan array binding signal (z-score) [3]: 0 | glycan array binding signal (z-score) [4]: -0.261 | glycan array binding signal (z-score) [5]: -0.461 | glycan array binding signal (z-score) [6]: -0.433 | glycan array binding signal (z-score) [7]: -0.676 | glycan array binding signal (z-score) [8]: -0.884 | glycan array binding signal (z-score) [9]: 0.063 | glycan array binding signal (z-score) [10]: 0.745 | glycan array binding signal (z-score) [11]: -0.345 | glycan array binding signal (z-score) [12]: 1.69 | glycan array binding signal (z-score) [13]: -0.778 | glycan array binding signal (z-score) [14]: -0.167 | glycan array binding signal (z-score) [15]: -0.117 | glycan array binding signal (z-score) [16]: -0.492 | glycan array binding signal (z-score) [17]: -1 | glycan array binding signal (z-score) (Neu5Ac(a2-3)GalNAc): 0.432 | glycan array binding signal (z-score) [18]: 0.366 | glycan array binding signal (z-score) [19]: -0.139 | glycan array binding signal (z-score) [20]: -0.28 | glycan array binding signal (z-score) [21]: -0.233 | glycan array binding signal (z-score) [22]: 0.076 | glycan array binding signal (z-score) (Neu5Ac(a2-6)Gal): -0.177 | glycan array binding signal (z-score) [23]: -0.644 | glycan array binding signal (z-score) (Neu5Ac(a2-6)Gal(b1-4)Glc): -0.325 | glycan array binding signal (z-score) [24]: -0.013 | glycan array binding signal (z-score) [25]: -0.532 | glycan array binding signal (z-score) [26]: 0.59 | glycan array binding signal (z-score) [27]: -0.009 | glycan array binding signal (z-score) [28]: -0.179 | glycan array binding signal (z-score) [29]: 12.5 | glycan array binding signal (z-score) [30]: -0.404 | glycan array binding signal (z-score) [31]: 0.357 | glycan array binding signal (z-score) [32]: 0.167 | glycan array binding signal (z-score) [33]: 2.53 | glycan array binding signal (z-score) [34]: 1.4 | glycan array binding signal (z-score) [35]: 0.824
